The record followed here is ChEMBL document CHEMBL4303122, “Identification of potential treatments for COVID-19 through artificial intelligence-enabled phenomic analysis of human cells infected with SARS-CoV-2” (2020).

In all, about 1,600 compounds were measured (“Hit score”: median about 0.13, highest 2% from about 0.46 on). Some of the results follow.

For this experiment, the system named is SARS-CoV-2. The experiment is described as follows: Antiviral activity against SARS-CoV-2 (USA-WA1/2020 strain) measured by imaging in HRCE cells at MOI 0.4 after 96 hrs (reported as hit score from 0-1 for on-disease vs off-disease activity: scores >0.6 considered hits). Format: functional, Homo sapiens.
On to `CCCCCCOC(=O)NC(=N)c1ccc(NCc2nc3cc(C(=O)N(CCC(=O)OCC)c4ccccn4)ccc3n2C)cc1` [DABIGATRAN ETEXILATE], for which the Hit score came to 0.242. For `Cc1c(-c2ccccc2)oc2c(C(=O)OCCN3CCCCC3)cccc2c1=O` [FLAVOXATE] the value was 0.1693. As for `C/C=C1\[C@H]2C=C(C)C[C@]1(N)c1ccc(=O)[nH]c1C2` [HUPERZINE A], the figure is 0.2677; as for `NC(=O)CN1CC(O)CC1=O` (configuration not stated) [OXIRACETAM], 0.1694; as for `CCN(CC)CCOC(=O)c1ccc(N)cc1Cl` [CHLOROPROCAINE], 0.06273. As for `Cc1cc(C)c(CNC(=O)c2cc(-c3ccc(CN4CCOCC4)cc3)cc3c2cnn3C2CCCC2)c(=O)[nH]1`, the figure is 0.02871; as for `CN(C)C(=O)C(CCN1CCC(O)(c2ccc(Cl)cc2)CC1)(c1ccccc1)c1ccccc1` [LOPERAMIDE], -0.01176. The molecule `Nc1nc2[nH]cnc2c(=S)[nH]1` [THIOGUANINE] yielded a Hit score of 0.2388. For `Cc1cccc(C)c1NC(=O)CC12CCCN1CCC2` [PILSICAINIDE] the value was 0.07632. As to `Cc1ccccc1C(=O)Nc1ccc(C(=O)N2CCCC(O)c3cc(Cl)ccc32)c(C)c1` (configuration not stated) [TOLVAPTAN], the Hit score came to 0.1093. For `N#C[C@@H]1C[C@@H]2C[C@@H]2N1C(=O)[C@@H](N)C12CC3CC(CC(O)(C3)C1)C2.O` [SAXAGLIPTIN], the Hit score is given as -0.0639. The molecule `CCOC(=O)CCC(=O)O[C@H]1[C@H](O[C@@H]2[C@@H](C)[C@H](O[C@H]3C[C@@](C)(OC)[C@@H](O)[C@H](C)O3)[C@@H](C)C(=O)O[C@H](CC)[C@@](C)(O)[C@H](O)[C@@H](C)C(=O)[C@H](C)C[C@@]2(C)O)O[C@H](C)C[C@@H]1N(C)C` [ERYTHROMYCIN ETHYLSUCCINATE] gave a Hit score of 0.2512. For `Cc1cccc(C)c1NC(=O)C(C)N` (configuration not stated) [TOCAINIDE] the value was -0.08565; for `CC(C(=O)O)c1ccc2c(c1)[nH]c1ccc(Cl)cc12` (configuration not stated) [CARPROFEN], 0.07462; for `CCCCc1cc2ccccc2c(OCCN(C)C)n1` [DIMETHISOQUIN], 0.1395. Turning to `CC(=O)O[C@H]1C[C@@]2(C)[C@@H](C[C@@H](O)[C@H]3[C@@]4(C)CC[C@@H](O)[C@@H](C)[C@@H]4CC[C@@]32C)/C1=C(\CCC=C(C)C)C(=O)O` [FUSIDIC ACID], the Hit score was found to be 0.09513. `CC1OC(O[C@@H]2C=C3CC[C@@H]4[C@H](CC[C@]5(C)[C@@H](c6ccc(=O)oc6)CC[C@]45O)[C@@]3(C)CC2)C(O)C(O)C1O` (some centres not stated) registered a Hit score of -0.48.
